Results as given in the supplement of paper PMC10849652.
The list shows a part of the results.

Protein sequences, listed by entry. Tags and fused reporters are not part of them. Lines headed by an entry give the natural chain unless they say otherwise; changes in a name come on top.
UniProt Q9H9S3, whole entry, looked up: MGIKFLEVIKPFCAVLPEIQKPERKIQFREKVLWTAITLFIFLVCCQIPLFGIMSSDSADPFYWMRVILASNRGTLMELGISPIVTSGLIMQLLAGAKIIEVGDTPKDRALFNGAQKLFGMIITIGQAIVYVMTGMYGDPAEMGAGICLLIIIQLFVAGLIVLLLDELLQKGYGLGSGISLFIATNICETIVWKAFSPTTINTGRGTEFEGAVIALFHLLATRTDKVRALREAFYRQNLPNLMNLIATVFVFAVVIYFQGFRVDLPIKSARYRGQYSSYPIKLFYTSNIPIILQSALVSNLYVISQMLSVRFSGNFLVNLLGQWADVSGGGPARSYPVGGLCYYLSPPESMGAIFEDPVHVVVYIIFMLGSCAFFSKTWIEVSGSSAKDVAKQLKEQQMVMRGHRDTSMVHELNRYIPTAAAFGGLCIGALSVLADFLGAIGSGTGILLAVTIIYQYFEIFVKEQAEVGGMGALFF
UniProt O60613, whole entry, looked up: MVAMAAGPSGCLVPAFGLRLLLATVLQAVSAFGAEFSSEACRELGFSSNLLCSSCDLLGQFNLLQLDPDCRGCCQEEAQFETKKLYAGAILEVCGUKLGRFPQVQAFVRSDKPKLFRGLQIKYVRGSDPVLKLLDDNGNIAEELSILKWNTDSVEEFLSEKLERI
UniProt Q15637: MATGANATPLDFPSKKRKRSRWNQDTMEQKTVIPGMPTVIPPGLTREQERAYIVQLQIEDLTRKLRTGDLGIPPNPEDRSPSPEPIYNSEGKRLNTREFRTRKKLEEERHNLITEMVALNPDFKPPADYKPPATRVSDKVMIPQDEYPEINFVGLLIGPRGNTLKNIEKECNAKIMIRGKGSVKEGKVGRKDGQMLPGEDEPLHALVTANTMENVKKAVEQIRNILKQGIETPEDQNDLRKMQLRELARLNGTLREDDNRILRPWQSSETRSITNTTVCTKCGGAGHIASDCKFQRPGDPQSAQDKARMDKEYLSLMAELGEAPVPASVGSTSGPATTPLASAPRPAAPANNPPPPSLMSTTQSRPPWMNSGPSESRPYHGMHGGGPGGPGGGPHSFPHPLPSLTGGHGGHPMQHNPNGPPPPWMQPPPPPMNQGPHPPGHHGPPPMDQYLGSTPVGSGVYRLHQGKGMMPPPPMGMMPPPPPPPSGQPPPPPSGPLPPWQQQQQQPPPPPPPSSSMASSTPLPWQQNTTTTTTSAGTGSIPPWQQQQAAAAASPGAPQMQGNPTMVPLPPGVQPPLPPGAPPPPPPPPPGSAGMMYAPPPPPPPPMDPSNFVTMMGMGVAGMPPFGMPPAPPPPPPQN
UniProt P01008, whole entry, looked up: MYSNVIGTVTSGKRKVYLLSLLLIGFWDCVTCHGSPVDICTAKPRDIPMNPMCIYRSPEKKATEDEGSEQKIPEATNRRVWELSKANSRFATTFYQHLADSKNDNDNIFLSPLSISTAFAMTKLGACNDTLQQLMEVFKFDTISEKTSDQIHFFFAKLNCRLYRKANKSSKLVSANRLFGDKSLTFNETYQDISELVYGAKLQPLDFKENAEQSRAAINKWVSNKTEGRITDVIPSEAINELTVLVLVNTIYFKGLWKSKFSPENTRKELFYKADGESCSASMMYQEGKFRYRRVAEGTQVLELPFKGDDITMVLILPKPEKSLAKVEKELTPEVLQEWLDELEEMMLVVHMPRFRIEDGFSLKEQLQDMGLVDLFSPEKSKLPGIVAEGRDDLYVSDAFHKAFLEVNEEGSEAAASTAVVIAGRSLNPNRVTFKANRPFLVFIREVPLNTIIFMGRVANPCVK
UniProt Q6P4A7: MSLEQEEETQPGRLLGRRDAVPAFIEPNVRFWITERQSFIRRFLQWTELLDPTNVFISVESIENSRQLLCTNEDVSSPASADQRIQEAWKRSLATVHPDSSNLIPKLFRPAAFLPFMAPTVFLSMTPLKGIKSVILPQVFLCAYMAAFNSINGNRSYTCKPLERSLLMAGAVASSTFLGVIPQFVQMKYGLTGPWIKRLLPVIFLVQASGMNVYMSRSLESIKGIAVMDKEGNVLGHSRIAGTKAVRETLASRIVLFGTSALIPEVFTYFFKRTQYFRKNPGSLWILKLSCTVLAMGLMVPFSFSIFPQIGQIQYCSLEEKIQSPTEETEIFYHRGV
UniProt Q15459: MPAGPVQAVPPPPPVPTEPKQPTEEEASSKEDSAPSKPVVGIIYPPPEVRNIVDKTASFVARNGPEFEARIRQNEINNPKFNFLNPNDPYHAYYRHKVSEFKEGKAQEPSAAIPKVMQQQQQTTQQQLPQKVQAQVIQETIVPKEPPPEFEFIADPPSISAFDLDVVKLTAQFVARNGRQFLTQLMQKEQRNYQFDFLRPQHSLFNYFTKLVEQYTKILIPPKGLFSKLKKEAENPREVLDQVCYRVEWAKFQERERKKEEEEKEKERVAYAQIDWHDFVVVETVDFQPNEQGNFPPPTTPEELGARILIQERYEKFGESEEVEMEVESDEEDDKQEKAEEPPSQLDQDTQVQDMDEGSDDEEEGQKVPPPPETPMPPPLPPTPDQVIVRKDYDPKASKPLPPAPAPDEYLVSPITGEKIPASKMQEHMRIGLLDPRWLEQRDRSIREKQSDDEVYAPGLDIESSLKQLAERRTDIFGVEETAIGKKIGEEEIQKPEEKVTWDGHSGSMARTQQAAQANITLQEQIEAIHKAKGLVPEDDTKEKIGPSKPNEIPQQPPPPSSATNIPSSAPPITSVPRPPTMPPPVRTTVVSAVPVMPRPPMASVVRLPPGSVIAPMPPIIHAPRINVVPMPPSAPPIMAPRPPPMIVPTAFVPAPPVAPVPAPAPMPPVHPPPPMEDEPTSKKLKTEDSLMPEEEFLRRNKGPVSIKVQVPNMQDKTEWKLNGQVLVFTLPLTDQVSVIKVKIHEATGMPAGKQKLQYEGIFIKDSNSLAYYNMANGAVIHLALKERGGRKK
UniProt Q9HD40: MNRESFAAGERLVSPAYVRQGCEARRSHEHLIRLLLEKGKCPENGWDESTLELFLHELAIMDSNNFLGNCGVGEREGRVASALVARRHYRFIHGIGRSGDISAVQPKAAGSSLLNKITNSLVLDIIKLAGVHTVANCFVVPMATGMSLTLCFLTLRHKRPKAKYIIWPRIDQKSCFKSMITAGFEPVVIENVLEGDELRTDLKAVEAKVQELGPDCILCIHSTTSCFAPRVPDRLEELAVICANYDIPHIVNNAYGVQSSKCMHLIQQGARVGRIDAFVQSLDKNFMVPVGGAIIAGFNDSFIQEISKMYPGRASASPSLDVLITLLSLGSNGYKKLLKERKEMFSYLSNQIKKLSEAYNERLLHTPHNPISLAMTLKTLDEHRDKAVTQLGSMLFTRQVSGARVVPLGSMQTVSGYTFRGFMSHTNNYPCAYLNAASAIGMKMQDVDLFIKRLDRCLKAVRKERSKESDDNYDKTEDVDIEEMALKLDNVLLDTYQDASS
UniProt Q68CR1: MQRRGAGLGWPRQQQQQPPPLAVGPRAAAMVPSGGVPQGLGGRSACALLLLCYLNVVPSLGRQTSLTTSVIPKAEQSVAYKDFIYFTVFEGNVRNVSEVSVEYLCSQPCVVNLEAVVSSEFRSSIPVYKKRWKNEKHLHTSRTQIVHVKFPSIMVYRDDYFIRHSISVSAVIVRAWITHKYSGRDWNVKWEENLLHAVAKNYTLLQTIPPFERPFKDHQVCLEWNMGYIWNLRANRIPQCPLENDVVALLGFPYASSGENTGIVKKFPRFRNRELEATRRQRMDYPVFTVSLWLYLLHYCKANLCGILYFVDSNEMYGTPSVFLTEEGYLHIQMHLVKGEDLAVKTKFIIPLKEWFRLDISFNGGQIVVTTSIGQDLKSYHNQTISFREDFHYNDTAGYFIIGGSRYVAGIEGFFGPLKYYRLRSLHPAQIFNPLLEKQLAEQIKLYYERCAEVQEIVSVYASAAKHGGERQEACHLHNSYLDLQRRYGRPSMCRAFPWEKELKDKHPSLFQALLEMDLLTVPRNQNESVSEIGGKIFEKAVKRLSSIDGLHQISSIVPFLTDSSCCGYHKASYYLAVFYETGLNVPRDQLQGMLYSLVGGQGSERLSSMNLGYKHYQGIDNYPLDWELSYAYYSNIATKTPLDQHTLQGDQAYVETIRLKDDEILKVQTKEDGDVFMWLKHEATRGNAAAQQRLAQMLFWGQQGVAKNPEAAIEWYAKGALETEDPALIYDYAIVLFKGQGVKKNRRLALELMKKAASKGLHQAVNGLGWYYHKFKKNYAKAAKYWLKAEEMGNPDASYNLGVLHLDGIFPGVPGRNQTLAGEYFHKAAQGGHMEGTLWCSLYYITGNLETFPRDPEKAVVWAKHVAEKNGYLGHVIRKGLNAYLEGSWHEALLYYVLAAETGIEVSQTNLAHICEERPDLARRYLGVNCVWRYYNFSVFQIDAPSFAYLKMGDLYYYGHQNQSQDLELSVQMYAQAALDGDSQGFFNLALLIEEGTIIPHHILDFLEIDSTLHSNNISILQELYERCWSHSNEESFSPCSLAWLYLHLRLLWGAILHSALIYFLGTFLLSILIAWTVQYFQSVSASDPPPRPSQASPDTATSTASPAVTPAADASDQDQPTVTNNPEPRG
UniProt P62341, whole entry, looked up: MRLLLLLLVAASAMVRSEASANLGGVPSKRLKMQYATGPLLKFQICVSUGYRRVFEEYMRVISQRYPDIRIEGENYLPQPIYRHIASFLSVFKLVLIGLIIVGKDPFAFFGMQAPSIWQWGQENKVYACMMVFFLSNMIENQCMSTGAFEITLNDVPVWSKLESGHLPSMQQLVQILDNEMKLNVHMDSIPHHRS
UniProt Q16181: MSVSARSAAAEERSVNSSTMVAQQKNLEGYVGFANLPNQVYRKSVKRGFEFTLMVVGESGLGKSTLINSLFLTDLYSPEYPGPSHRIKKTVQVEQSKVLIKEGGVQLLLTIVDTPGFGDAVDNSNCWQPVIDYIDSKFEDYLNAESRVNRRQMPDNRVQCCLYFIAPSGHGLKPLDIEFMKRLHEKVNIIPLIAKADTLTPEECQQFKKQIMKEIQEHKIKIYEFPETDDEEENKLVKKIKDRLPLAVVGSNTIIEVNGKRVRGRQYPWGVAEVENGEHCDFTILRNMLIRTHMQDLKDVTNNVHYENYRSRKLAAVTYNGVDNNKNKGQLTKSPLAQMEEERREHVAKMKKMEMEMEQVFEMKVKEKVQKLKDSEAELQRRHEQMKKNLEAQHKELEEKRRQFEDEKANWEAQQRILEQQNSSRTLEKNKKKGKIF
UniProt P34897: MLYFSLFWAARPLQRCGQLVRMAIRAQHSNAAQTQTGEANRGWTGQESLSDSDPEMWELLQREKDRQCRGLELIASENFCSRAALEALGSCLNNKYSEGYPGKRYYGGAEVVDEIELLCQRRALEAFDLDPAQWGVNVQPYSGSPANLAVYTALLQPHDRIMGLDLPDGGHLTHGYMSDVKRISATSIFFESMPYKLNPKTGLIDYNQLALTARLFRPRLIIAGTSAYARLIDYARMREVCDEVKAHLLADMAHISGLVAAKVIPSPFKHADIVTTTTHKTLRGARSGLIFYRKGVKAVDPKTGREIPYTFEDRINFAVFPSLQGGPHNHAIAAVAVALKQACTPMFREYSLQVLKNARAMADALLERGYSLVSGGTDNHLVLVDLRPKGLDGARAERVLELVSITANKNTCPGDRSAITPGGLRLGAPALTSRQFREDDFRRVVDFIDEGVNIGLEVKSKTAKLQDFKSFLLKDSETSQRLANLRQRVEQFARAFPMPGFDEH
UniProt Q96EB6: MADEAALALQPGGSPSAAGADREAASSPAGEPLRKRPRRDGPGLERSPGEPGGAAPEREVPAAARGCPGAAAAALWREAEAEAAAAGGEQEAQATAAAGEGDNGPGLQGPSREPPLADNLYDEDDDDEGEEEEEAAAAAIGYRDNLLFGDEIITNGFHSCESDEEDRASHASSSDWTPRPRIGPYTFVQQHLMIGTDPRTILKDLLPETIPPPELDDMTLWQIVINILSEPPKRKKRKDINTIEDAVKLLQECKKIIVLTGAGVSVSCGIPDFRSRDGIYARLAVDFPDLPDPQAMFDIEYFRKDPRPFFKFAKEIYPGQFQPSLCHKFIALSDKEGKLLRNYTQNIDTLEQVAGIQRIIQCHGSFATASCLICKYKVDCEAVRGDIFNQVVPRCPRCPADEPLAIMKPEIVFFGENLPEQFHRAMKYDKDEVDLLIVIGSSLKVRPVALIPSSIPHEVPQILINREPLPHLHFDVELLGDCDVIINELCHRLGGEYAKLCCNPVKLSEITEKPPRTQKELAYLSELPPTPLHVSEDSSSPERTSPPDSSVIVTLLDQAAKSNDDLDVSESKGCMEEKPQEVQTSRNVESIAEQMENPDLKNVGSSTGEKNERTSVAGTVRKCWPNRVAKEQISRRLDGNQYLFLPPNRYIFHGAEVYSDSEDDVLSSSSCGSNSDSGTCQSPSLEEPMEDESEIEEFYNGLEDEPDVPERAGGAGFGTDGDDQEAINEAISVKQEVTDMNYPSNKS

Tests used:
Experiment in all cases: log2 fold change, soluble protein after heating vs DMSO (PISA); higher = thermal stabilisation; K562 cells, 10 uM, 30 min; active = over 0.2 and 3.5 SD of the protein, either way, in both replicates (recomputed)
[1] = compound: CC1=C(C=C(C=C1)NC(=O)C2=CC(=CC=C2)C(C)(C)C#N)NC3=CC4=C(C=C3)N=CN(C4=O)C
Summary of the method: (§1)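 Values are thermal stability changes relative to control samples and are taken from duplicates. They are stated as log2 fold changes. Before quantification by TMTpro 16plex LC-MS/MS with equalised channel sums, K562 cells at 2×10^6 cells/mL were treated with 10 μM compound for 30 min, heated in aliquots for 3 min across 48°C-58°C, pooled, extracted in PBS with 0.5% NP-40 at 4°C, and centrifuged at 21,000xg for 90 min to give the soluble supernatant.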

[2] = compound: CC1=C(C=C(C=C1)NC(=O)C2=CC(=CC=C2)N(C)C)NC(=O)C3=CC=C(C=C3)O
Summary of the method: as §1

[3] = compound: CC1=CC=C(C=C1)SC2=C3C=C(SC3=CN=C2)C(=O)N
Summary of the method: as §1

[4] = compound: CC1=NC(=CC=C1)C2=C(N=C(N2)C(C)(C)C)C3=CC4=NC=CN=C4C=C3
Summary of the method: as §1

Nexturastat A = compound: CCCCN(Cc1ccc(C(=O)NO)cc1)C(=O)Nc1ccccc1 [Nexturastat A]
Summary of the method: as §1

vemurafenib = compound: CCCS(=O)(=O)Nc1ccc(F)c(C(=O)c2c[nH]c3ncc(-c4ccc(Cl)cc4)cc23)c1F [vemurafenib]
Summary of the method: as §1

[5] = compound: CCCS(=O)(=O)Nc1ccc(F)c(C(=O)c2c[nH]c3ncc(Cl)cc23)c1F
Summary of the method: as §1

[6] = compound: CCCc1cc(C)[nH]c(=O)c1CNC(=O)c1cc(-c2ccnc(N3CCN(C)CC3)c2)cc2c1cnn2C(C)C
Summary of the method: as §1

givinostat = compound: CCN(CC)Cc1ccc2cc(COC(=O)Nc3ccc(C(=O)NO)cc3)ccc2c1 [givinostat]
Summary of the method: as §1

barasertib = compound: CCN(CCCOc1ccc2c(Nc3cc(CC(=O)Nc4cccc(F)c4)[nH]n3)ncnc2c1)CCOP(=O)(O)O [barasertib]
Summary of the method: as §1

[7] = compound: CC[C@@H]1C(=O)N(C)c2cnc(Nc3ccc(C(=O)NC4CCN(C)CC4)cc3OC)nc2N1C1CCCC1
Summary of the method: as §1

volasertib = compound: CC[C@@H]1C(=O)N(C)c2cnc(Nc3ccc(C(=O)N[C@H]4CC[C@H](N5CCN(CC6CC6)CC5)CC4)cc3OC)nc2N1C(C)C [volasertib]
Summary of the method: as §1

[8] = compound: CC[C@H](C)N1C=C(C2=C(C=C(C=C21)C3=CN=C(C=C3)N4CCNCC4)C(=O)NCC5=C(C=C(NC5=O)C)C)C
Summary of the method: as §1

epoxomicin = compound: CC[C@H](C)[C@@H](C(=O)N[C@@H]([C@@H](C)O)C(=O)N[C@@H](CC(C)C)C(=O)[C@]1(CO1)C)NC(=O)[C@H]([C@@H](C)CC)N(C)C(=O)C [epoxomicin]
Summary of the method: as §1

[9] = compound: CCn1c(C(=O)N(C2CC2)C2CC2)cc2c3c(ncn3C)c(Nc3cc(C)n(C)n3)nc21
Summary of the method: as §1

[10] = compound: CCn1cc(-c2ccnc3[nH]c(-c4cccc(CN(C)C)c4)cc23)c(-c2ccc(NC(=O)N(C)C)cc2)n1
Summary of the method: as §1

[11] = compound: CN(C)CC(=O)Nc1ccc2[nH]c(=O)c3ccccc3c2c1
Summary of the method: as §1

rosiglitazone = compound: CN(CCOC1=CC=C(C=C1)C[C@H]2C(=O)NC(=O)S2)C3=CC=CC=N3 (racemic) [rosiglitazone]
Summary of the method: as §1

[12] = compound: CN1C2=C(C3=C1C(=O)N(N=C3)CC4=CC(=CC=C4)N)SC(=C2)S(=O)C
Summary of the method: as §1

[13] = compound: CN1CCC(CNc2ccc3ncc(-c4cccc(OC(F)(F)F)c4)n3n2)CC1
Summary of the method: as §1

Measured: log2 fold change

SEC61A2 (UniProt Q9H9S3)
inactive: [1] 0.065 | [2] 0 | [3] 0.016 | [4] -0.04 | Nexturastat A -0.106 | vemurafenib 0.045 | [5] 0.039 | [6] -0.098 | givinostat -0.029 | barasertib -0.007 | [7] 0.05 | volasertib 0.017 | [8] -0.063 | epoxomicin -0.023 | [9] -0.004 | [10] 0.011 | [11] 0.034 | rosiglitazone 0.026 | [12] -0.047 | [13] 0.079

SELENOF (UniProt O60613)
inactive: [1] -0.03 | [2] -0.056 | [3] -0.039 | [4] -0.039 | Nexturastat A 0.006 | vemurafenib 0.007 | [5] -0.052 | [6] -0.002 | givinostat 0.005 | barasertib -0.013 | [7] 0.012 | volasertib -0.047 | [8] -0.002 | epoxomicin 0 | [9] 0.007 | [10] -0.033 | [11] -0.008 | rosiglitazone -0.025 | [12] 0 | [13] 0.029

SF1 isoform 6 (UniProt Q15637)
inactive: [1] -0.177 | [2] -0.14 | [3] 0.112 | [4] -0.005 | Nexturastat A 0.006 | vemurafenib -0.039 | [5] 0.076 | [6] -0.042 | givinostat 0.14 | barasertib -0.065 | [7] -0.046 | volasertib -0.055 | [8] 0.006 | epoxomicin -0.092 | [9] -0.032 | [10] 0.004 | [11] -0.039 | rosiglitazone -0.025 | [12] -0.048 | [13] 0.001

SERPINC1 (UniProt P01008)
inactive: [1] -0.032 | [2] 0.586 | [3] 0.206 | [4] 0.019 | Nexturastat A -0.138 | vemurafenib 0.072 | [5] -0.152 | [6] -0.236 | givinostat 0.021 | barasertib -0.065 | [7] -0.003 | volasertib 0.101 | [8] -0.048 | epoxomicin -0.54 | [9] 0.037 | [10] 0.101 | [11] -0.006 | rosiglitazone 0.028 | [12] 0.155 | [13] 0.049

SFXN4 (UniProt Q6P4A7)
inactive: [1] 0.006 | [2] 0 | [3] 0.038 | [4] 0.05 | Nexturastat A -0.015 | vemurafenib 0.011 | [5] 0 | [6] 0.016 | givinostat 0.014 | barasertib -0.044 | [7] 0.062 | volasertib -0.016 | [8] -0.044 | epoxomicin -0.037 | [9] 0.007 | [10] -0.045 | [11] 0.042 | rosiglitazone 0.008 | [12] -0.038 | [13] 0.049

SF3A1 (UniProt Q15459)
inactive: [1] 0.033 | [2] -0.041 | [3] -0.004 | [4] 0.026 | Nexturastat A -0.011 | vemurafenib 0.028 | [5] -0.001 | [6] -0.011 | givinostat 0.015 | barasertib 0.022 | [7] -0.006 | volasertib -0.08 | [8] 0.002 | epoxomicin -0.02 | [9] -0.055 | [10] 0.01 | [11] 0.007 | rosiglitazone 0.002 | [12] 0.008 | [13] 0.113

SEPSECS (UniProt Q9HD40)
inactive: [1] 0.034 | [2] 0.017 | [3] 0.08 | [4] 0.01 | Nexturastat A -0.028 | vemurafenib 0.041 | [5] 0.043 | [6] -0.067 | givinostat 0.014 | barasertib 0.061 | [7] 0.077 | volasertib -0.1 | [8] 0.006 | epoxomicin 0.061 | [9] -0.021 | [10] 0.064 | [11] 0.042 | rosiglitazone -0.032 | [12] -0.029 | [13] 0.087

Three neighbouring entries already listed:
SFXN4 (UniProt Q6P4A7)
inactive: [1] 0.006 | [2] 0 | [3] 0.038 | [4] 0.05 | Nexturastat A -0.015 | vemurafenib 0.011 | [5] 0 | [6] 0.016 | givinostat 0.014 | barasertib -0.044 | [7] 0.062 | volasertib -0.016 | [8] -0.044 | epoxomicin -0.037 | [9] 0.007 | [10] -0.045 | [11] 0.042 | rosiglitazone 0.008 | [12] -0.038 | [13] 0.049

SF3A1 (UniProt Q15459)
inactive: [1] 0.033 | [2] -0.041 | [3] -0.004 | [4] 0.026 | Nexturastat A -0.011 | vemurafenib 0.028 | [5] -0.001 | [6] -0.011 | givinostat 0.015 | barasertib 0.022 | [7] -0.006 | volasertib -0.08 | [8] 0.002 | epoxomicin -0.02 | [9] -0.055 | [10] 0.01 | [11] 0.007 | rosiglitazone 0.002 | [12] 0.008 | [13] 0.113

SEPSECS (UniProt Q9HD40)
inactive: [1] 0.034 | [2] 0.017 | [3] 0.08 | [4] 0.01 | Nexturastat A -0.028 | vemurafenib 0.041 | [5] 0.043 | [6] -0.067 | givinostat 0.014 | barasertib 0.061 | [7] 0.077 | volasertib -0.1 | [8] 0.006 | epoxomicin 0.061 | [9] -0.021 | [10] 0.064 | [11] 0.042 | rosiglitazone -0.032 | [12] -0.029 | [13] 0.087

Additional records.

SEL1L3 (UniProt Q68CR1)
inactive: [1] 0.042 | [2] 0.013 | [3] -0.042 | [4] -0.059 | Nexturastat A 0.117 | vemurafenib -0.072 | [5] 0.017 | [6] -0.014 | givinostat 0.069 | barasertib -0.111 | [7] -0.021 | volasertib -0.067 | [8] 0.087 | epoxomicin -0.01 | [9] -0.05 | [10] 0.024 | [11] -0.015 | rosiglitazone -0.044 | [12] 0.05 | [13] 0.282

SELENOT (UniProt P62341)
inactive: [1] 0.026 | [2] 0.14 | [3] -0.077 | [4] -0.002 | Nexturastat A -0.001 | vemurafenib -0.082 | [5] 0.015 | [6] -0.001 | givinostat -0.02 | barasertib -0.043 | [7] 0.042 | volasertib 0.122 | [8] -0.017 | epoxomicin -0.051 | [9] 0.033 | [10] 0.002 | [11] -0.01 | rosiglitazone 0.004 | [12] -0.037 | [13] 0.101

SFN (UniProt P31947)
inactive: [1] -0.038 | [2] 0.034 | [3] -0.117 | [4] -0.022 | Nexturastat A -0.145 | vemurafenib 0.022 | [5] -0.136 | [6] 0.047 | givinostat -0.038 | barasertib 0.02 | [7] 0.164 | volasertib -0.012 | [8] 0.003 | epoxomicin -0.006 | [9] 0.026 | [10] 0.012 | [11] -0.019 | rosiglitazone 0.03 | [12] -0.039 | [13] -0.051

SEPTIN7 (UniProt Q16181)
inactive: [1] 0.006 | [2] 0.003 | [3] -0.022 | [4] 0.026 | Nexturastat A -0.009 | vemurafenib 0.02 | [5] 0.035 | [6] -0.007 | givinostat 0.005 | barasertib 0.017 | [7] -0.019 | volasertib -0.028 | [8] -0.003 | epoxomicin 0.027 | [9] 0.014 | [10] -0.003 | [11] 0.005 | rosiglitazone 0.028 | [12] -0.097 | [13] 0.006

SGO1 (UniProt Q5FBB7)
inactive: [1] -0.031 | [2] -0.009 | [3] -0.015 | [4] -0.041 | Nexturastat A 0.166 | vemurafenib 0.007 | [5] -0.004 | [6] -0.029 | givinostat 0.026 | barasertib 0.031 | [7] 0.008 | volasertib 0.054 | [8] 0.052 | epoxomicin 0.028 | [9] 0.003 | [10] -0.092 | [11] -0.006 | rosiglitazone 0.02 | [12] -0.05 | [13] 0.014

SHMT2 (UniProt P34897)
inactive: [1] -0.013 | [2] 0 | [3] 0.006 | [4] 0.005 | Nexturastat A -0.059 | vemurafenib -0.013 | [5] -0.009 | [6] -0.033 | givinostat -0.028 | barasertib 0 | [7] 0.009 | volasertib 0.047 | [8] -0.03 | epoxomicin -0.006 | [9] 0.016 | [10] 0.01 | [11] -0.029 | rosiglitazone -0.007 | [12] -0.033 | [13] 0.047

SEPTIN11 isoform 2 (UniProt Q9NVA2)
inactive: [1] -0.027 | [2] 0 | [3] 0.007 | [4] 0.015 | Nexturastat A -0.01 | vemurafenib -0.019 | [5] 0.021 | [6] 0.025 | givinostat -0.015 | barasertib -0.009 | [7] 0.034 | volasertib 0.031 | [8] -0.012 | epoxomicin 0.022 | [9] -0.012 | [10] -0.016 | [11] -0.015 | rosiglitazone -0.008 | [12] -0.056 | [13] 0.02

SIRT1 (UniProt Q96EB6)
inactive: [1] 0.007 | [2] 0.005 | [3] -0.035 | [4] -0.004 | Nexturastat A 0.022 | vemurafenib 0.021 | [5] 0.046 | [6] 0.066 | givinostat -0.008 | barasertib 0.031 | [7] -0.102 | volasertib 0.203 | [8] 0.056 | epoxomicin -0.041 | [9] 0.024 | [10] 0 | [11] 0.015 | rosiglitazone 0.001 | [12] -0.017 | [13] 0.011
